Values of other authors, collected in patent US20170027908A1, “Pharmaceutical Composition” (CIPLA Limited, priority 2011, published 2017).

Settings: in vivo

Compound: COc1ccc(CC(C)NCC(O)c2ccc(O)c(NC=O)c2)cc1 (racemic) [Formoterol, (±)-2-hydroxy-5-[(1RS)-1-hydroxy-2-[[(1RS)-2-(4-methoxyphenyl)-1methylethyl]amino]ethyl] formanilide]
- duration of action: more than 12 hours
- onset of action: 1 to 3 min
